Experimental findings from article doi:10.1101/2025.11.06.685569 (bioRxiv, 2025) are described below.

Holding throughout (test): pull-down
Test [1] deals with FLAG-tagged Atg9^ΔTMR (S. cerevisiae).
The target of test [2] is FLAG-tagged Atg9^ΔTMR_S802D (S. cerevisiae).
Test [3] deals with FLAG-tagged Atg9^ΔTMR_Helix-1+2_mut (S. cerevisiae).
Test [4] addresses FLAG-tagged Atg9^ΔTMR_Helix-2_mut (S. cerevisiae).
Test [5] deals with FLAG-tagged Atg9^ΔTMR_Helix-1_mut (S. cerevisiae).
For test [6], the target named is FLAG-tagged Atg9^ΔTMR_T804E_S819D_S831D_S842D (S. cerevisiae).
The target of test [7] is Myc-tagged Atg9^ΔTMR (S. cerevisiae).
The target in test [8] is FLAG-tagged Atg9^ΔTMR_Δ939-997 (S. cerevisiae).

Results are given in words; binding and its absence hold for the method and conditions named. A result given as binding can be weak or reduced; the word gives no strength. For some of these results: Tags and fused reporters may be left off the sequences shown.

B1: SUMO*-Atg27^CTR-StrepII^2x (domain or fragment, S. cerevisiae, UniProt P46989 223-271, looked up)
chain: TRGGSFQDFRAEFIQRSTQFLTSLPEFCKEVVSRILGRSTAQRGGYSAV
In the case of B1, the binding entry in test [1] is listed as “binds”; in test [2], “binds”; in test [3], “binds weakly”; in test [4], “binds”; in test [5], “binds”; in test [6] it was “binds weakly”.

B2: Atg17 (protein, UniProt Q06410 1-417)
chain: MNEADVTKFVNNARKTLTDAQLLCSSANLRIVDIKKKLSSWQLSISKLNFLIVGLRQQGKFLYTILKEGIGTKLIQKQWNQAVLVVLVDEMKYWQYEITSKVQRLDGIVNELSISEKDDTDPSKLGDYISRDNVNLLNDKLKEVPVIERQIENIKLQYENMVRKVNKELIDTKLTDVTQKFQSKFGIDNLMETNVAEQFSRELTDLEKDLAEIMNSLTQHFDKTLLLQDKKIDNDEREELFKVVQGDDKELYNIFKTLHEVIDDVDKTILNLGQFLQAKIKEKTELHSEVSEIINDFNRNLEYLLIFKDISNLIDSFKNSCTQDIQTTKELCEFYDNFEESYGNLVLEAKRRKDVANRMKTILKDCEKQLQNLDAQDQEERQNFIAENGTYLPETIWPGKIDDFSSLYTLNYNVKNP
With B2, the binding entry in test [7] is “binds”.

B3: FLAG-StrepII^2x-tagged Atg11 (protein, UniProt Q12527 1-1178)
chain: MADADEYSTAPTQQEITPLQTTATIINAISGECITTNVDFFVSLDKFKQFIARKWKIPPDQLLILLPYGNKLKPSMFKELLINRSFTLNDFYVYDRRLFSLVSKPTPTNLLTSKDSNPMNSPNSNDLTETLEYLIKNSHISQYQGSDTIMIKPMPSPLEDADVDLSRLNYHSVTSLLTTNLGWLSALEIDVHYFKSLIPDIIAHIKRIFDGLTVCSQYLKLYCFDVESLYNSNVQFLNQLVDNGMTSKWEKCFNDTLSKLTALEGDSLQKFINIESLLENEKSVKILNHSINGKLNKIKREIDENASFRDIITVNIDRLRQMFTPNESKFELEDQMAESFEVLVSEMRTRSRNVLDKEEEEFNSQEFLKSMNVMLEKDKKESVKTLFTISQALYSQIGELIDLKKSLQKHAVAILGNIAFTQMEILGIKRLLLNECNKDLELYKKYEVEFAQVEDLPLIYGLYLIEKYRRLSWFQQILSFISNFNQDLELFKQNELRTRNKWVKNFGSIATVFCEDLLSSSDFKRLNEYHSHTSPPNEDEEDENENSIANYRQDLVKVSQAIDNYMTQIKETDVSEPIIDLLSKTLFETKRFHIIYSNFKNNNNNSSNGNSISPEGSIALKSDDVVKGYKTRIKKLESLLHEFQYSDIGHWPQGVLNTHLKPFRGSATSINKKKFLGASVLLEPANISEVNIDSVSQANNHQIQELESNVDDLLHQLQLLKEENNRKSMQISEMGKKISDLEVEKTAYRETLTNLNQELARLTNEEQSHRTEIFTLNASFKKQLNDIISQDNEKIEKLTGDYDDVSKSRERLQMDLDESNKKHEQEVNLLKADIERLGKQIVTSEKSYAETNSSSMEKGEKFETIPLAEDPGRENQISAYTQTLQDRIFDIISTNIFILENIGLLLTFDNNNNIQIRRVKGLKKGTAQSNILDESTQMLDAHDNSLIKSPVFQKLKDEYELIKSVANGSEKDTQQSIFLGNITQLYDNKLYEVAVIRRFKDIETLAKKLTKENKIKRTLLERFQREKVTLRNFQIGDLALFLPTRENVNSVGSMSSSTSSLSSSFSSVDLSTPPPLDAMSIQSSPSVIHSNVINQASISGRDKNKLMRPWAAFTAFEESTRYFLKDEKGLTKGKEWFVGRIVTLEHFVADSPSNNPFRLPKGSVWFQVTAVVVSYQGV
As for B3, the binding entry in test [7] is on record as “binds”.

B4: Atg23 (no tag named in the legend) (protein, UniProt Q06671 1-453)
chain: MELNQVLEKKEQILQYLGTLVGLHEKALSDVNSASQVTSIRKDITICLNDLCRINDLLVSHDGLLKREIGSLLRDKQELLELNEREQLLWKERKSWHIKQETDAAPADYVIDKDAIITISSHHRTSLNKYIESVGAENTILSNTDDSDAMIEEVQNAESSADQMIRNYKLLQLSHKQAKSEIIRLETLLRDFKKDNKFIEEELKRQSGRIRSEMGNIDFHLSKIEESKHQLMKRIGFESPLTQEKSLSEKIFNLRLSSADEDYNERQTINMKNFVHMKDLIELKIEDLQEQLMRNKNESSTVLTQRELWLDCQKKVGDLESKLITKLRSSSNSKIPPNEMSEMINSTIQYLNNLLDSSDEKLTTTLISNERDVLSKACEELHSESTTAQDGSSALPSKPIDIHKSHKGSNASSNLKQPSTPSFLVASKSPPKIGISESVVNANKNDAISKKVE
In the case of B4, in test [8], the binding entry was “binds”.

B5: FLAG-tagged Atg23 (protein, UniProt Q06671 1-453)
chain: MELNQVLEKKEQILQYLGTLVGLHEKALSDVNSASQVTSIRKDITICLNDLCRINDLLVSHDGLLKREIGSLLRDKQELLELNEREQLLWKERKSWHIKQETDAAPADYVIDKDAIITISSHHRTSLNKYIESVGAENTILSNTDDSDAMIEEVQNAESSADQMIRNYKLLQLSHKQAKSEIIRLETLLRDFKKDNKFIEEELKRQSGRIRSEMGNIDFHLSKIEESKHQLMKRIGFESPLTQEKSLSEKIFNLRLSSADEDYNERQTINMKNFVHMKDLIELKIEDLQEQLMRNKNESSTVLTQRELWLDCQKKVGDLESKLITKLRSSSNSKIPPNEMSEMINSTIQYLNNLLDSSDEKLTTTLISNERDVLSKACEELHSESTTAQDGSSALPSKPIDIHKSHKGSNASSNLKQPSTPSFLVASKSPPKIGISESVVNANKNDAISKKVE
As for B5, the binding result in test [7] is on record as “binds”.
